From article PMC4605787
These are yes or no findings as the source states them, for the method shown. In cells and extracts the contact can be indirect. Here binding means that the protein was enriched with, or labelled near, the bait; the list need not be complete. Where a sequence is shown, tags or fusion partners need not be part of it.

By UniProt entry, the sequences of proteins in these tests, tags left out.
UniProt P47197: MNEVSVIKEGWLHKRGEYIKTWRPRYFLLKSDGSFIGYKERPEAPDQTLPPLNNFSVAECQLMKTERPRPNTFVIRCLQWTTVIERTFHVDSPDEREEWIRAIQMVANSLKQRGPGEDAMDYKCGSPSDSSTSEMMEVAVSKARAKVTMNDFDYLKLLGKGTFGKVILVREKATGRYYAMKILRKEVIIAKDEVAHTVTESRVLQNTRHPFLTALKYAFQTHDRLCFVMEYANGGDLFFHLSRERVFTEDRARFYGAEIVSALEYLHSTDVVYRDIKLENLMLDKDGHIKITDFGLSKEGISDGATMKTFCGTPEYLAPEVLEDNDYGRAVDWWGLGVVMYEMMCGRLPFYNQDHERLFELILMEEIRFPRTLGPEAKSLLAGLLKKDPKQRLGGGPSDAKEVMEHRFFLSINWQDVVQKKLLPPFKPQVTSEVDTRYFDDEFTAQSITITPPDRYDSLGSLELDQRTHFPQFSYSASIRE

B1: Protein CDV3 homolog (protein, UniProt Q5XIM5 1-236)
chain: MAETEERSLDNFFAKRDKKKKKERSSRAANAASGAGGSSAAAGSRPGDGGSLGSGARSGDGGSSGSGARSGDGGSLGSGARSGDGGTSRSGDGGSAGPGGKAITKDENEWKEFEQKEVDYSGLRVQAMQISEKEDDDNEKREDPGDNWEEGGGGSGAEKSSGPWNKTALVQAPPAPVTVTETPEPAMPSGVYRPPGARLTTTRKTPQGPPEIYSDTQFPSLQSTAKHVESRNRYLK
B2: Transgelin (protein, UniProt P31232 1-201)
chain: MANKGPSYGMSREVQSKIEKKYDEELEERLVEWIVMQCGPDVGRPDRGRLGFQVWLKNGVILSKLVNSLYPEGSKPVKVPENPPSMVFKQMEQVAQFLKAAEDYGVTKTDMFQTVDLFEGKDMAAVQRTVMALGSLAVTKNDGHYRGDPNWFMKKAQEHKREFTDSQLQEGKHVIGLQMGSNRGASQAGMTGYGRPRQIIS
B3: Aminopeptidase B (protein, UniProt O09175 1-650)
chain: MESSGPSSCHSAARRPLHSAQAVDVASASSFRAFEILHLHLDLRAEFGPPGPGPGSRGLNGKATLELRCLLPEGASELRLDSHSCLEVMAATLLRGQPGDQQQLTEPVPFHTQPFSHYGQALCVVFPKPCCAAERFRLELTYRVGEGPGVCWLAPEQTAGKKKPFVYTQGQAVLNRAFFPCFDTPAVKCTYSALVEVPDGFTAVMSASTWERRGPNKFFFQMSQPIPSYLIALAIGDLASAEVGPRSRVWAEPCLIEAAKEEYNGVIEEFLATGEKLFGPYVWGRYDLLFMPPSFPFGGMENPCLTFVTPCLLAGDRSLADVIIHEISHSWFGNLVTNANWGEFWLNEGFTMYAQRRISTILFGAAYTCLEAATGRALLRQHMDVSGEENPLNKLRVKIEPGVDPDDTYNETPYEKGYCFVSYLAHLVGDQEQFDKFLKAYVDEFKFQSILAEDFLEFYLEYFPELKKKGVDSIPGFEFNRWLNTPGWPPYLPDLSPGDSLMKPAEELAELWAASEPDMQAIEAVAISTWKTYQLVYFLDKILQKSPLPPGNVKKLGETYPKISNAQNAELRLRWGQIILKNDHQEEFWKVKDFLQSQGKQKYTLPLYHAMMGGSEMARTLAKETFSATASQLHSNVVNYVQQILAPKGS
B4: Prostaglandin E synthase 3 (protein, UniProt P83868 1-160)
chain: MQPASAKWYDRRDYVFIEFCVEDSKDVNVNFEKSKLTFSCLGGSDNFKHLNEIDLFHCIDPNDSKHKRTDRSILCCLRKGESGQSWPRLTKERAKLNWLSVDFNNWKDWEDDSDEDMSNFDRFSEMMDHMGGDEDVDLPEVDGADDDSQDSDDEKMPDLE
B5: D-3-phosphoglycerate dehydrogenase (protein, UniProt O08651 1-533)
chain: MAFANLRKILISDSLDPCCRKILQDGGLQVVEKQNLSKEELIAELQDCEGLIVRSATKVTADVINAAEKLQVVGRAGTGVDNVDLEAATRKGVLVMNTPNGNSLSAAELTCGMLMCLARQIPQATASMKDGKWDRKKFMGTELNGKTLGILGLGRIGREVAARMQAFGMKTVGYDPIISPEVAASFGVQQLPLEEIWPLCDFITVHTPLLPSTTGLLNDSTFAQCKKGVRVVNCARGGIVDEGALLRALQSGQCAGAALDVFTEEPPRDRALVDHENVISCPHLGASTKEAQSRCGEEIAVQFVDMVKGKSLTGVVNAQALTSAFSPHTKPWIGLAEALGTLMHAWAGSPKGTIQVVTQGTSLKNAGTCLSPAVIVGLLREASKQADVNLVNAKLLVKEAGLNVTTSHSPGVPGEQGIGECLLTVALAGAPYQAVGLVQGTTPMLQMLNGAVFRPEVPLRRGQPLLLFRAQPSDPVMLPTMIGLLAEAGVQLLSYQTSKVSDGDTWHVMGLSSLLPSLDAWKQHVSEAFQFCF
B6: Proteasome subunit beta type-1 (protein, UniProt P18421 28-240)
chain: RFSPYAFNGGTVLAIAGEDFSIVASDTRLSEGFSIHTRDSPKCYKLTDKTVIGCSGFHGDCLTLTKIIEARLKMYKHSNNKAMTTGAIAAMLSTILYSRRFFPYYVYNIIEGLDEEGKGAVYSFDPVGSYQRDSFKAGGSASAMLQPLLDNQVGFKNMQNVEHVPLTLDRAMRLVKDVFISAAERDVYTGDALRICIVTKEGIREETVPLRKD
B7: Putative RNA-binding protein 3 (protein, UniProt Q925G0 1-155)
chain: MSSEEGKLFVGGLNFNTDEQALEDHFSSFGPISEVVVVKDRETQRSRGFGFITFTNPEHASDVMRAMNGESLDGRQIRVDHAGKSARGTRGGAFGAHGRGRSYSRGGGDQGYGSGRYDSRPGGYGYGYGRSRDYSGSQGGYDRYSGGNYRDNYDN
B8: Nucleolar RNA helicase 2 (protein, UniProt Q3B8Q1 1-782)
chain: MPGKLRSASKSESEGTEESMETLQKPSEKKTRKEKPKSKTDEATEGVEEAASSKVKAVKKKGPSEDDVGPPKSKKAKKQEEEPQDDPASKSKTSKKKKEPLEKKAPSAKTKEMKAEEPSEEEADAPKPKKTKKGKEANGDVGEKSPGLKNGLSHPKPDSSSTQAPGEESETEKEIPVEQKEGAFSNFPISEETVKLLKARGVNFLFPIQAKTFHHVYSGKDLIAQARTGTGKTFSFAIPLIEKLQGGLQERKRGRAPQVLVLAPTRELANQVSKDFSDITKKLSVACFYGGTPYGGQIERMRSGIDILVGTPGRIKDHLQNGKLDLTKLKHVVLDEVDQMLDMGFADQVEEILCVAYKKDSEDNPQTLLFSATCPHWVFNVAKKYMKSTYEQVDLIGKKTQKAAITVEHLAIKCHWTERAAVIGDVIRVYSGHQGRTIIFCETKKDAQELSQNTCIKQDAQSLHGDIPQKQREITLKGFRNGNFGVLVATNVAARGLDIPEVDLVVQSCPPKDVESYIHRSGRTGRAGRTGVCICFYQHKEEYQLAQVEQKAGIKFKRIGVPSATEIIKASSKDAIRLLDSVPPTAIGHFKQSAEKLIEEKGAVEALAAALAHISGATSVDQRSLINSQAGFVTMILRCSVEMPNISYAWKELKEQLGESIDAKVKGMVFLKGKLGVCFDVRTEAVTEIKEKWHDSRRWQLTVATEQPELEGPPEGYRGGRGQRDGSRGSFRGQRGGSRNFRGQGQRGGSRNFRGQRPGGGNKSNRSPNKGQKRSFSKAFGQ
B9: Ubiquitin-conjugating enzyme E2 N (protein, UniProt Q9EQX9 1-152)
chain: MAGLPRRIIKETQRLLAEPVPGIKAEPDESNARYFHVVIAGPQDSPFEGGTFKLELFLPEEYPMAAPKVRFMTKIYHPNVDKLGRICLDILKDKWSPALQIRTVLLSIQALLSAPNPDDPLANDVAEQWKSNEAQAIETARAWTRLYAMNNI
B10: Thioredoxin-like protein 1 (protein, UniProt Q920J4 1-289)
chain: MVGVKPVGSDPDFQPELSGAGSRLAVVKFTMRGCGPCLRIAPAFSSMSNKYPQAVFLEVDVHQCQGTAATNNISATPTFLFFRNKVRIDQYQGADAVGLEEKIKQHLENDPGSNEDTDIPKGYMDLMPFINKAGCECLNESDEHGFDNCLRKDLSFLESDCDEQLLITVAFNQPVKLYSMKFQGPDNGQGPKYVKIFINLPRSMDFEEAERSEPTQALELTEDDIKEDGIVPLRYVKFQNVNSVTLFVQSNQGEEETTRISYFTFIGTPVQATNMNDFKRVVGKKGESH

target: Akt2 (rat (endogenous in L6 myoblasts)) (UniProt P47197); assay: affinity purification with mass spectrometry; endogenous Akt2 immunoprecipitated (2 ug rabbit polyclonal anti-Akt2, protein A beads, overnight, 4°C) from 1 mg L6 myoblast lysate precleared with NIgG; cells serum-starved, with or without 100 nM insulin for 15 min; lysis buffer 50 mM HEPES pH 7.6, 150 mM NaCl, 1% Triton; 1D-SDS-PAGE, in-gel trypsin digestion, HPLC-ESI-MS/MS, label-free quantification; hits absent from all NIgG controls

binding, binds:
B1
B2
B3
B4
B5
B6
B7
B8
B9
B10
